Results as given in PubChem BioAssay AID587 (National Center for Advancing Translational Sciences (NCATS), 2007).
Out of some 59,000 compounds screened, about 35 (0.06%) were called active. Inconclusive results, whose numbers are uncertain, are shown with a selection of clear calls. Rule as the data show it: active = max dye-equivalent concentration above about 10 nM; inconclusive = between about 1.1 nM and that limit; inactive = weaker than that.

Assay: qHTS Assay for Spectroscopic Profiling in Texas Red Spectral Region
Settings: Compound fluorescence, Texas Red channel, 547/618 nm; stronger effect = higher value
How it was run: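 Texas Red-region profiling: compounds in 100 mM Tris pH 8.0 were read at 547/618 nm after 15 min at room temperature. Intensities were normalized against a six-point Texas Red standard series to give dye-equivalent concentration.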

| Compound | max dye-equivalent concentration |
| --- | --- |
| O=C(Cn1ccc(=O)[nH]c1=O)Nc1ccc(C(=O)O)c(O)c1 | inactive |
| CCN=C1SC(CC(=O)Nc2ccccc2)C(=O)N1CC (stereo unspecified) | inconclusive: 1.5 nM |
| O[C@H](C[C@@H]1CCCCN1)c1ccc2c(c1)oc1ccccc12 | inconclusive: 1.1 nM |
| N#CC1=C(N)OC(c2ccccc2)=C(C#N)C1c1ccc2c(c1)OCO2 (stereo unspecified) | inconclusive: 1.1 nM |
| N=c1c(C(=O)NCc2ccco2)cc2c(=O)n3ccccc3nc2n1Cc1ccccc1 | inactive |
| N#Cc1c(NCCCO)nc(NCc2ccccc2)c2c1CCN(Cc1ccccc1)C2 | inconclusive: 1.2 nM |
| CCN1C(=O)/C(=C2/SC(C)=C(C)N2CC)SC1=S | inactive |
| CC(C)C(=O)Nc1ccc(NC(=O)c2cc3ccccc3o2)cc1 | inconclusive: 1.6 nM |
| C[C@@]12CCC(=O)C=C1CC[C@H]1[C@@H]2[C@@H](O)C[C@]2(C)[C@@H]1CC[C@@]2(O)C(=O)COC(=O)C1CCCC1 | inactive |
| COc1ccc(NC(=O)C2CCN(c3cc(-c4ccccc4)nc4ncnn34)CC2)cc1OC | inconclusive: 1.3 nM |
| OCCNc1ncnc2c1ncn2[C@@H]1O[C@@H](CO)[C@H](O)[C@@H]1O | inactive |
| COc1ccc(OC(=O)c2ccncc2)cc1 | inconclusive: 1.2 nM |
| Cc1oc(-c2cccc(Cl)c2)[n+]([O-])c1C | inactive |
| O=C(CC(SCCO)c1ccc2c(c1)OCO2)c1cccs1 (stereo unspecified) | inconclusive: 1.6 nM |
| O=C(CCC(=O)N(CC(=O)NC1CCCC1)Cc1ccc2c(c1)OCO2)Nc1ccccn1 | inconclusive: 2.2 nM |
| COc1cc(OC)nc(NC(=O)CN2CCN(c3ccc(F)cc3)CC2)n1 | inconclusive: 1.2 nM |
| CN(Cc1cccs1)CC(O)COCc1ccco1 (stereo unspecified) | inconclusive: 2.7 nM |
| CCOc1cc(-c2ccc(N)c(OCC)c2)ccc1N | inactive |
| CNc1ncnc2c1ncn2[C@@H]1O[C@H](CO)[C@@H](O)[C@@H]1O | inconclusive: 1.3 nM |
| COC(=O)c1[nH]c(C)c(/C(O)=C2\C(=O)C(=O)N(CCN3CCOCC3)C2c2ccccc2OC)c1C (stereo unspecified) | inconclusive: 1.1 nM |
| c1ccc2[nH]c(NCCN3CCOCC3)nc2c1 | inconclusive: 1.2 nM |

| Compound | max dye-equivalent concentration |
| --- | --- |
| CCN1C(=O)c2cccc3c(NC(=O)C4CCCCC4)ccc1c23 | inactive |
| O=C(Nc1ccc2oc(-c3ccncc3)nc2c1)c1ccccc1F | inconclusive: 1.7 nM |
| CC(=O)Cn1c(CN2CC(C)CC(C)C2)nc2c1c(=O)n(C)c(=O)n2C (stereo unspecified) | inconclusive: 1.2 nM |
| CC(C)NC(=O)N1CC[C@@]2(CCCN(C(=O)Oc3ccccc3)C2)C1 | inconclusive: 1.3 nM |
| CC(=O)N1CCN(c2ccc(NC(=O)c3ccc4c(c3)OCO4)cc2)CC1 | inconclusive: 1.2 nM |
| O=C(CSc1nnc(-c2ccco2)o1)NCC(=O)c1ccccc1 | inconclusive: 1.4 nM |
| O=C(Cc1cccs1)NCC1CCCO1 (stereo unspecified) | inconclusive: 1.5 nM |
| O=C1N(c2ccccc2)c2ccccc2C1(Cc1ccncc1)Cc1ccncc1 | inconclusive: 1.8 nM |
| O=S(=O)(Nc1ncccc1O)c1ccc(Cl)cc1 | inactive |
| CCC(C)(C(=O)NC1CCCC1)N(C(=O)CNC(C)=O)c1ccc(C)cc1 (stereo unspecified) | inactive |
| C[C@H](NCCN(C)C)[C@@H]1CCC2C3CCc4cc(O)ccc4[C@H]3CCC21C (stereo partly specified) | inactive |
| O=C(CSc1nnnn1-c1ccc(Cl)cc1)N1CCc2ccccc2C1 | inconclusive: 1.1 nM |
| Cc1onc(-c2ccccc2)c1C(=O)NCc1ccccn1 | inconclusive: 1.6 nM |
| COc1ccc(CNc2oc(Cc3cccc4ccccc34)nc2C#N)cc1 | inconclusive: 1.1 nM |
| COc1ccc2[nH]c(=O)c(CN(C(=O)c3ccco3)C3CCCCC3)cc2c1 | inconclusive: 1.1 nM |
| COC(=O)c1[nH]c2ccc(C)cc2c1NC(=O)CCN1CCN(C2CCCCC2)CC1 | inconclusive: 1.2 nM |
| COc1cc(C(=O)NCc2cn3ccsc3n2)cc(OC)c1OC | inactive |
| O=C1CSC(=S)N1/N=C\c1ccc(Cl)c([N+](=O)[O-])c1 | inactive |
| CC1Cc2ccccc2N1C(=O)CSc1nnc2n1C(C)(C)Cc1ccccc1-2 (stereo unspecified) | inconclusive: 1.7 nM |
| O=C(CN1CCC(Cc2ccccc2)CC1)NC(=O)NCc1ccco1 | inconclusive: 1.2 nM |
| C=C1CC[C@H]2C(C)(C)[C@H](O)CC[C@]2(C)[C@@H]1COc1ccc2ccc(=O)oc2c1 | inactive |
| CCC(CC)NCc1ccc(OC)cc1OC | inconclusive: 1.5 nM |

| Compound | max dye-equivalent concentration |
| --- | --- |
| COc1ccc2cc3cc(C(=O)N4CCN(Cc5ccc6c(c5)OCO6)CC4)oc3nc2c1 | inconclusive: 1.1 nM |
| CC(NC(=O)C1C2C=CC(C2)C1C(=O)O)c1ccccc1 (stereo unspecified) | inconclusive: 1.4 nM |
| O=C(CSc1nnnn1Cc1ccccc1)NCC(=O)c1ccccc1 | inconclusive: 2 nM |
| Cc1ccc(C)c(OCC(O)CN2C(C)CCCC2C)c1 (stereo unspecified) | inconclusive: 1.4 nM |
| Cc1cc(N=Cc2c(CO)cnc(C)c2O)c(N=Cc2c(CO)cnc(C)c2O)cc1C.[Zn] | inconclusive: 2.1 nM |
| O=S(=O)(c1ccccc1)c1nc(-c2cccs2)oc1NCCCn1ccnc1 | inconclusive: 2.5 nM |
| Cc1cccc(OCC(O)Cn2c(=N)n(CCN3CCCCC3)c3ccccc32)c1 (stereo unspecified) | inconclusive: 2.1 nM |
| COc1ccc(-n2nc(C(=O)N3CCN(c4ccc(F)cc4)CC3)c3ccccc3c2=O)c(OC)c1 | inconclusive: 1.3 nM |
| CCCC(=O)Nc1ccc(NC(=O)C23CC4CC(CC(C4)C2)C3)cn1 | inconclusive: 1.2 nM |
| Cc1[nH]nc2c1C(c1ccc(-c3ccccc3C#N)o1)C(C#N)=C(N)O2 (stereo unspecified) | inconclusive: 1.4 nM |
| CCn1nnnc1-c1ccc(OC)c(S(=O)(=O)Nc2ccc(C(=O)OC)cc2)c1 | inconclusive: 1.5 nM |
| COC(=O)c1cc(NC(=O)CN(c2ccc3c(c2)OCO3)S(C)(=O)=O)ccc1Cl | inconclusive: 1.1 nM |
| COc1ccccc1Nc1nc(NCCO)c2ccccc2n1 | inconclusive: 1.1 nM |
| COc1ccc(CNC(=O)c2cc3c(=O)n4ccccc4nc3n(Cc3cccnc3)c2=N)cc1 | inactive |
| CCOc1ccccc1C(=O)NCC(=O)OCC(=O)NCCc1ccc(S(N)(=O)=O)cc1 | inconclusive: 1.2 nM |
| O=c1c2ccccc2nc(SCc2cn3ccsc3n2)n1-c1ccccc1 | inconclusive: 1.5 nM |
| C=CCn1c(COc2ccccc2)nnc1SCC(=O)NCC(=O)OCC | inconclusive: 1.3 nM |
| Cc1cc(C(=O)COC(=O)CN(C)S(=O)(=O)c2ccc(Cl)cc2)c(C)n1Cc1cccs1 | inconclusive: 1.4 nM |
| CCOC(=O)c1ccc2c(c1)nc(C1CCN(S(=O)(=O)c3cccs3)CC1)n2CC | inconclusive: 1.4 nM |
| COc1cccc(OCc2nnc(SCC(=O)OCc3ccccc3)o2)c1 | inconclusive: 1.9 nM |
| O=C(CN1CCCc2ccccc21)NC(=O)NCc1ccco1 | inconclusive: 1.3 nM |
| COc1ccc(-c2nnc(SCC(=O)N3CCCc4ccccc43)o2)cc1OC | inconclusive: 1.1 nM |

| Compound | max dye-equivalent concentration |
| --- | --- |
| CN1CCN(C(=O)c2ccc(NS(=O)(=O)c3ccccc3)cc2)CC1 | inconclusive: 1.2 nM |
| O=C(c1cccc(F)c1)N1CCC2(CCCN(C(c3ccccc3)c3ccccc3)C2)CC1 | inactive |
| COc1ccccc1NC(=O)CSc1nnc(-c2ccco2)n1Cc1ccco1 | inconclusive: 2.2 nM |
| Cc1cccc(CS(=O)(=O)Cc2ccc(C(=O)NCc3ccco3)o2)c1 | inconclusive: 1.3 nM |
| CCOc1ccc(C(=O)Nc2ccc3c(c2)OCCO3)cc1OC | inconclusive: 1.1 nM |
| CC(C)(C)n1ncc2c(=O)n(CC(=O)NC3CCCCC3)cnc21 | inconclusive: 1.5 nM |
| CCn1cc(C(C)(C)C)c(C#N)c1NC(C)=O | inconclusive: 1.3 nM |
| O=C1CC(/C=C/c2ccco2)=Nc2ccccc2N1 | inconclusive: 1.2 nM |
| COC(=O)c1ccccc1NC(=O)CSc1nc(-c2ccco2)cc(C(F)(F)F)n1 | inconclusive: 1.3 nM |
| N#Cc1ccc(OCCN2C(=O)NC3(CCSC3)C2=O)cc1 (stereo unspecified) | inactive |
| C[C@H](N)CCCC(C)(C)O | inconclusive: 1.2 nM |
| COC(=O)c1sc(N)c(C(=O)OC)c1CSc1nc2sc3c(c2c(=O)n1C)CCC3 | inconclusive: 1.1 nM |
| COc1ccc(N2CCN(S(=O)(=O)c3cccc(C(F)(F)F)c3)CC2)cc1 | inconclusive: 1.2 nM |
| CCOc1cc(N2CCOCC2)c(OCC)cc1NC(=O)Cn1[nH]c(=O)c2ccccc2c1=O | inconclusive: 1.8 nM |
| CS(=O)(=O)N(CC(=O)NCc1cccnc1)Cc1ccc(Cl)cc1 | inconclusive: 1.7 nM |
| O=C(c1cccc(Br)c1)N1CCN(C(=O)N2CCCCC2)CC1 | inconclusive: 1.2 nM |
| O=C(O)C1Sc2[nH]c(=O)sc2C2c3cc(Cl)ccc3OC(=O)C12 (stereo unspecified) | inactive |
| Cc1ccc2oc(=O)cc(CN3CCOCC3)c2c1 | inconclusive: 1.1 nM |
| O=C(c1ccco1)N1c2ccccc2Sc2ccccc21 | inconclusive: 1.1 nM |
| Cc1ccc(-n2c3c(cc(C(=O)NC4CCSC4=O)c2=O)C(=O)CCC3)cc1 (stereo unspecified) | inactive |
